According to PMC7567072:
Results are given in words; binding and its absence hold for the method and conditions named. In cells and extracts the contact can be indirect. Some results given as binding are weak or reduced against the parent protein; the word gives no strength. For some of these results: Where a sequence is shown, tags or fusion partners need not be part of it.

The chains behind the UniProt entries cited, without tags or fusion partners.
UniProt P06430: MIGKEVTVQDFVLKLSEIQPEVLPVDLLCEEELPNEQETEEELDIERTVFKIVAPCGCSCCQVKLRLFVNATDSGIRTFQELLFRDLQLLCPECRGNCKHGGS
UniProt P03129: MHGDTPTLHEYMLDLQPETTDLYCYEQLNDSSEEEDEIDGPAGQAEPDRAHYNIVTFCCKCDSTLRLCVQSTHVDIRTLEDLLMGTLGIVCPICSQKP

What was measured:
[1] = target: FLAG-tagged HPV8-E7 (pCMV2-HPV8-E7-FLAG), in C33a cells (human papillomavirus type 8 (HPV8)) (UniProt P06430); test: co-IP; whole protein lysates of transiently transfected C33a cells on M2-FLAG agarose beads, 0.1 M LSDB buffer, 3 h at 4 °C, five washes; blot for ATP5B
[2] = target: T1, FLAG-HPV11-E7 (FLAG-tagged pCMV HPV-11 E7), in HEK293 cells (human papillomavirus type 11 (HPV11)) (UniProt P04020); test: co-IP; extracts of HEK293 cells 24 h after transfection, anti-FLAG antibody conjugated beads; blot for endogenous ATP5B
T1 sequence: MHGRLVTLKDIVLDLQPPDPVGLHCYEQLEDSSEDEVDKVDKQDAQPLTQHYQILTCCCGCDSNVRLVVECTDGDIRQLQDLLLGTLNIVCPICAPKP

[3] = target: FLAG-HA-HPV16-E7 (Flag-HA-tagged pCMV HPV-16 E7), in HEK293 cells (human papillomavirus type 16 (HPV16)) (UniProt P03129); test: as above
[4] = target: FLAG-HPV8-E7 (pCMV2-HPV8-E7-FLAG), in HEK293 cells (human papillomavirus type 8 (HPV8)) (UniProt P06430); test: as above

| Substance | binding [1] | binding [2] | binding [3] | binding [4] |
| --- | --- | --- | --- | --- |
| ATP5B, beta subunit of the mitochondrial ATP synthase, in C33a cells (from UniProt P06576 48-529) | binds | – | – | – |
| endogenous ATP5B, in HEK293 cells (from UniProt P06576 48-529) | – | binds | binds | binds |
